According to PubChem BioAssay AID485314 (National Center for Advancing Translational Sciences (NCATS), 2010):
In all, about 340,000 compounds went through this assay and about 4,500 (1.3%) were called active. The inconclusive results got no clear call from the source; some entries with a clear call stand among them for comparison. The call rests on the fitted dose curve; in most records, active means well fitted inhibition curve with a large enough effect; inconclusive means small, poorly fitted or top-dose-only effect, or another doubt; inactive means no such curve, though single readings can be large or run the other way. Potencies of inconclusive entries are doubtful fits and often do not repeat. A structure can be active in one record and inactive in another.

The compounds below were run against DNA polymerase beta (Homo sapiens) (UniProt P06746) (assay: qHTS Assay for Inhibitors of DNA Polymerase Beta). Details: Pol beta primer extension/strand displacement, fluorescence kinetic; activity change, negative = inhibition: at 114 µM (top of the series).
Procedure, shortened: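 10 nM enzyme + cpd, 15 min RT; start with substrate 50 nM final; read 0 min and after 10 min RT. Corrected, normalized data; 4-parameter Hill curve fit.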
On the % scale 0 is the no-effect control and ±100 the full control effect; potency means the concentration at half of the fitted maximal effect.

Row | Structure (SMILES) | Potency | activity change, negative = inhibition
1 | O=C(CN1CCCCC1)Nc1c2c(nc3ccccc13)N(c1ccccc1)CC2 | inconclusive: 20 µM [inhibitor, full curve] | 
2 | Cn1c(CSCc2ccccc2)nnc1SCC(=O)Nc1nccs1 |  | inactive: -9.79%
3 | CCOc1ccccc1NC(=O)C(Cc1ccccc1)NS(=O)(=O)c1ccc2c(c1)oc(=O)n2C (stereo not drawn) | inconclusive: 79.4 µM [inhibitor, single point] | 
4 | COc1ccc(-c2cc(C(=O)OCC(=O)c3ccc(C)cc3)c3cccc(Cl)c3n2)cc1 |  | inactive: 42.5%
5 | COCc1cc(CN2CCCC2)c(O)c2ncccc12 |  | inactive: -1.83%
6 | COC(=O)c1ccc(COc2ccccc2/C=C/C(=O)c2ccc(OCC(=O)O)cc2)cc1 | active: 50.1 µM | 
7 | Cc1cccc(NS(=O)(=O)c2ccc3c(c2)oc(=O)n3C)c1C | inconclusive: 89.1 µM [inhibitor, single point] | 
8 | CCOC(=O)c1ccc(CN(Cc2ccccc2)S(=O)(=O)c2ccc(C)cc2)cc1 | inconclusive: 89.1 µM [inhibitor, single point] | 
9 | OCC1(Cc2ccc(Cl)cc2)CCN(Cc2ccc(Oc3ncccn3)cc2)CC1 |  | inactive: -20.5%
10 | CC(c1ccco1)N(C(=O)c1cc(Cl)cc(Cl)c1)c1ccccn1 (stereo not drawn) | inconclusive: 35.5 µM [inhibitor, single point] | 
11 | CC(=O)Nc1ccc(/C(C)=N\NC(=O)c2ccc(-c3ccccc3)cc2)cc1 | active: 39.8 µM | 
12 | CCN(c1ccc(C)cc1C)S(=O)(=O)c1nnc(NC(=O)C(C)C)s1 |  | inactive: -2.51%
13 | CN(C(=O)/C=C/c1ccco1)c1ccccc1C(=O)O | active: 17.8 µM | 
14 | CC(Nc1ccc(-c2nc(-c3ccncc3)no2)cc1[N+](=O)[O-])c1ccccc1 (stereo not drawn) | inconclusive: 89.1 µM [inhibitor, single point] | 
15 | CN(CC(=O)O/N=C(\N)c1ccc([N+](=O)[O-])cc1)S(=O)(=O)c1ccc2ccccc2c1 | inconclusive: 0.141 µM [inhibitor, full curve, poor fit] | 
16 | CCOC(=O)N1CCN(S(=O)(=O)c2ccc3[nH]cc(C(=O)O)c(=O)c3c2)CC1 | inconclusive: 35.5 µM [inhibitor, full curve, poor fit] | 
17 | CC1=NN(c2ccc(C(=O)O)cc2)C(=O)/C1=C\c1ccc(OC(=O)c2cccs2)cc1 | inconclusive: 89.1 µM [inhibitor, single point] | 
18 | COc1ccc(NC(=S)N2CCN(Cc3ccc(C)cc3)CC2)cc1 | inconclusive: 0.501 µM [inhibitor, full curve, poor fit] | 
19 | O=c1c2ccccc2ncn1-c1ccccc1C(F)(F)F | inconclusive: 4.47 µM [inhibitor, single point] | 
20 | COc1cccc(Cn2cccc(NC(=O)NCc3ccccc3)c2=O)c1 |  | inactive: 2.41%
21 | COc1ccc(NC(=O)C2=CC(c3cccs3)=NS(=O)(=O)N2C)cc1 | active: 31.6 µM | 
22 | COc1ccc2cc(/C(C)=N/NC(=S)Nc3cc(S(=O)(=O)N4CCOCC4)ccc3N3CCOCC3)ccc2c1 | inconclusive: 22.4 µM [inhibitor, partial curve, poor fit] | 

A portion from the list above:
Row | Structure (SMILES) | Potency | activity change, negative = inhibition
19 | O=c1c2ccccc2ncn1-c1ccccc1C(F)(F)F | inconclusive: 4.47 µM [inhibitor, single point] | 
20 | COc1cccc(Cn2cccc(NC(=O)NCc3ccccc3)c2=O)c1 |  | inactive: 2.41%
21 | COc1ccc(NC(=O)C2=CC(c3cccs3)=NS(=O)(=O)N2C)cc1 | active: 31.6 µM | 
22 | COc1ccc2cc(/C(C)=N/NC(=S)Nc3cc(S(=O)(=O)N4CCOCC4)ccc3N3CCOCC3)ccc2c1 | inconclusive: 22.4 µM [inhibitor, partial curve, poor fit] | 

Next structures

Row | Structure (SMILES) | Potency | activity change, negative = inhibition
23 | COc1ccc(S(=O)(=O)N2CCN(C(=O)c3ccc([N+](=O)[O-])o3)CC2)cc1 | inconclusive: 35.5 µM [inhibitor, partial curve] | 
24 | COc1ccc(Cc2nc(-c3ccccn3)no2)cc1OC | inconclusive: 20 µM [inhibitor, partial curve] | 
25 | CCc1nnc(NC(=O)CSc2nc3c([nH]c4ccccc43)c(=O)n2-c2cc(C)cc(C)c2)s1 |  | inactive: 23.3%
26 | Cn1c2ccccc2c2cc(/C=N/NC(=O)c3ccc(N)cc3)ccc21 | active: 10 µM | 
27 | COc1ccc(C2=CC3=C(Br)C(=O)C(C)(OC(=O)c4ccco4)C(=O)C3=CO2)cc1 (stereo not drawn) | active: 20 µM | 
28 | CCOc1ccc(CC(=O)Nc2ccc3nc(N4CCCCC4)cc(C)c3c2)cc1OCC | inconclusive: 89.1 µM [inhibitor, single point] | 
29 | Clc1ccc2nc(-c3ccc(Br)s3)cn2c1 | inconclusive: 3.16 µM [inhibitor, full curve] | 
30 | CCCCn1c(N)c(-c2nc3ccccc3o2)c2c([N+](=O)[O-])nn(C)c(=O)c21 | inconclusive: 2 µM [inhibitor, full curve] | 
31 | Cc1ccc(SCc2cn3c(C)csc3n2)cc1 | inconclusive: 89.1 µM [inhibitor, single point] | 
32 | O=C(CN1CCN(S(=O)(=O)c2ccc(F)cc2)CC1)Nc1ccc(F)cc1F |  | inactive: 14.7%
33 | CC1C(=O)N2CCCc3cc(NS(C)(=O)=O)cc1c32 (stereo not drawn) |  | inconclusive: -30.7% [inhibitor]
34 | Cc1cc(NS(=O)(=O)c2ccc(NC(=O)Cc3cccs3)cc2)no1 | inconclusive: 0.447 µM [inhibitor, full curve, poor fit] | 
35 | CCn1c2ccccc2c2cc(NC(=O)c3cc(OC)c(OC)c(OC)c3)ccc21 | inconclusive: 39.8 µM [inhibitor, single point] | 
36 | Cc1cc(-c2ccco2)c(C#N)c2nc3ccccc3n12 | active: 8.91 µM | 
37 | Cc1ccc(C(=O)N/N=C\c2cccn2C)cn1 | inconclusive: 0.141 µM [inhibitor, full curve, poor fit] | 
38 | Cc1oc2c(C)c(O)ccc2c(=O)c1-c1ccc2ccccc2n1 | inconclusive: 89.1 µM [inhibitor, single point] | 
39 | O=C(NC1CCCC1)c1c[nH]c2ccc(S(=O)(=O)Nc3cccc(C(F)(F)F)c3)cc2c1=O | inconclusive: 14.1 µM [inhibitor, partial curve] | 
40 | Cc1cc(-c2csc(NC(=O)c3ccc(S(=O)(=O)N(C)C)cc3)n2)c(C)n1-c1ccccc1 | inconclusive: 89.1 µM [inhibitor, single point] | 
41 | O=C(O)C1CCCCC1C(=O)Nc1nc(-c2ccc(Cl)s2)cs1 (stereo not drawn) | active: 15.8 µM | 
42 | CC1CCN(c2c(NCC3CCC(C(=O)NCCc4ccc(Cl)cc4)CC3)c(=O)c2=O)CC1 (stereo not drawn) |  | inconclusive: -42.7% [inhibitor]
43 | CCCCN(Cc1ccccc1)C(=O)C1CCN(Cc2sccc2C)CC1 | inconclusive: 89.1 µM [inhibitor, single point] | 
